Source: PubChem BioAssay AID2685 (National Center for Advancing Translational Sciences (NCATS), 2010)
The list shows a part of the results. The main result of the screen is listed elsewhere. These columns were measured beside it and carry no call. Most of these compounds were active or inconclusive in the main read-out, so they are no random draw. The note in brackets gives the kind of curve behind each potency; many fits are weak.

Assay: qHTS Assay for Lipid Storage Modulators in Drosophila S3 Cells;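 on cell number change: cells counted by Cell Tracker Red CMTPX staining in the red channel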
Settings: BODIPY lipid droplet fluorescence, 18-24 h; for cell number change: measured here: cell count max response, cells fed with added oleic acid
Procedure, shortened: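 Drosophila S3 cells loaded with oleic acid (400 uM, as added) and compounds at several concentrations; lipid droplets imaged by 488-nm laser-scanning cytometry, 500–530 nm intensity and object ratio to cell channel. Percent activity normalized to 20 uM Triacsin C.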

[1] = measured here: cell number channel AC50, cells fed with added oleic acid
[2] = measured here: lipid fluorescence (Fed channel) AC50, cells fed with added oleic acid

| Compound | cell number change | AC50 [1] | AC50 [2] |
| --- | --- | --- | --- |
| COP(=O)(OC)C(Nc1ccc([N+](=O)[O-])cc1)c1ccccc1 (stereo not drawn) | -0.747% | 0.731 µM [falling, full curve] | – |
| N#C/C(=C\c1cn(-c2ccccc2)nc1-c1cccnc1)c1nnc2n1CCCCC2 | 99% | 0.731 µM [rising, full curve] | 0.92 µM [rising, partial curve] |
| Cc1ccccc1COC(=O)CCCC1=NS(=O)(=O)c2ccccc2N1 | 1.32% | – | – |
| COC(=O)[C@H](CCSC)NC(=O)Nc1ccc(OC)c(Cl)c1 | – | 0.461 µM [falling, partial curve, poor fit] | 0.0164 µM [rising, partial curve] |
| O=C(c1cc2ccccc2o1)N1CCN(Cc2ccc3c(c2)OCO3)CC1 | -9.54% | – | – |
| Cc1ccc2nc(-c3cccc(S(=O)(=O)N4CCCC4)c3)cn2c1 | 12.8% | – | – |
| O=C(NCc1cccnc1)c1ccc(-c2cc(Cl)ccc2Cl)o1 | -2.53% | – | 32.6 µM [falling, single point] |
| CC(OC(=O)CNC(=O)c1ccccc1)C(=O)Nc1ccc(S(=O)(=O)N2CCOCC2)cc1 (stereo not drawn) | 36% | 29.1 µM [rising, single point] | – |
| O=S(=O)(Cc1ccc(Cl)cc1)N1CCN(Cc2ccccc2)CC1 | -103% | – | 29.1 µM [falling, partial curve] |
| COc1cccc(NC(=O)CN(C)C(=O)CCC(=O)c2cc(C)sc2C)c1 | 54% | 20.6 µM [rising, single point] | – |
| CN1CCN(C(CC(=O)Nc2cccc(O)c2)C(=O)O)CC1 (stereo not drawn) | 13.3% | 1.03 µM [falling, full curve] | 1.16 µM [falling, full curve] |
| Nc1[nH]ncc1S(=O)(=O)c1ccccc1 | 25.9% | – | – |
| c1ccc(Cn2c(NCc3ccco3)nc3ccccc32)cc1 | – | – | 0.651 µM [falling, full curve] |
| O=C(O)COc1ccccc1/C=N/NC(=O)CSc1nnc(SCc2ccc(Cl)cc2)s1 | – | – | 0.517 µM [rising, full curve] |
| COc1ccc(/C=C2\CCCC3C2=NN(C(=O)c2ccco2)C3c2ccc(OC)c(OC)c2)cc1OC (stereo not drawn) | -26.4% | – | 29.1 µM [falling, single point] |
| COCCn1c(SCC(=O)NC2CCCC2)nc2ccccc2c1=O | 0.747% | – | 1.64 µM [rising, partial curve] |
| CCOc1ccc(NC(=O)CN(C)C(=O)CSC(C)C(=O)Nc2cc(C)on2)cc1OCC (stereo not drawn) | – | – | 16.4 µM [rising, partial curve] |
| COc1ccc(/C=C2/SC(=S)N(c3ccc(S(=O)(=O)Nc4nccs4)cc3)C2=O)cc1 | -8.71% | 0.731 µM [falling, single point] | – |
| Cc1ccc(C)n1-c1nnc(N2CCC(C(=O)N3CCN(C)CC3)CC2)s1 | -4.03% | – | – |
| O=C(CN1C(=O)COc2ccccc21)NCCCN1CCN(c2ccccc2F)CC1 | – | 6.51 µM [rising, single point] | – |

| Compound | cell number change | AC50 [1] | AC50 [2] |
| --- | --- | --- | --- |
| Brc1ccccc1/C=N/N1CCCCC1 | -32.2% | 20.6 µM [falling, partial curve] | – |
| CS(=O)(=O)n1nc(OC(=O)c2cccc3ccccc23)cc1N | 5.17% | – | 4.11 µM [rising, single point] |
| CCCc1cn(S(=O)(=O)c2ccc(OC)cc2OC)nc1N | 65.1% | 0.731 µM [rising, partial curve] | 2.06 µM [rising, full curve] |
| O=c1[nH][nH]cc1C=Nc1ccccc1O | 103% | 0.00461 µM [rising, full curve, poor fit] | – |
| CCOC(=O)Nc1ccc2c(COC(=O)CNS(=O)(=O)c3cccc(Br)c3)cc(=O)oc2c1 | 5.3% | – | – |
| O=C(Nc1cc(Cl)ccc1O)C1CC(c2ccccc2Cl)=NO1 (stereo not drawn) | -25.3% | – | 6.51 µM [rising, partial curve] |
| CCC1(c2ccccc2)NC(=O)N(CC(=O)Nc2ccc(Cl)c(S(=O)(=O)N3CCCCC3)c2)C1=O (stereo not drawn) | 23.7% | – | – |
| CCOc1cc(NS(C)(=O)=O)c(OCC)cc1NC(=O)c1cccs1 | -12.4% | – | 2.06 µM [rising, partial curve] |
| Cc1nn(-c2ccccc2)c2[nH]c(=O)c(CNCc3ccc4c(c3)OCO4)cc12 | -1.69% | 0.58 µM [rising, partial curve] | – |
| CCOC(=O)C(C)S(=O)(=O)c1ccc(C(F)(F)F)cn1 (stereo not drawn) | -98.2% | 25.9 µM [falling, partial curve] | 23.1 µM [falling, partial curve] |
| Cc1ccc2nc(NC(=O)CSCC(=O)OCC(=O)c3ccccc3)sc2c1 | 7.51% | – | 0.731 µM [rising, single point] |
| NC(=O)c1ccccc1N=Cc1ccc2ccccc2c1 | -58.3% | 18.4 µM [falling, partial curve] | 6.51 µM [falling, partial curve, poor fit] |
| O=C(c1ccc(-n2c(SCc3cccc(F)c3)nc3ccccc3c2=O)cc1)N1CCOCC1 | 32.5% | 5.17 µM [rising, partial curve] | 16.4 µM [rising, partial curve, poor fit] |
| C=CCN(C(=O)Cn1ncc2c1-c1cc(C)ccc1OC2)c1ccccc1 | 24.6% | – | 23.1 µM [rising, single point] |
| O=C(c1ccc(S(=O)(=O)c2ccccc2Cl)c([N+](=O)[O-])c1)N1CCN(Cc2ccccc2)CC1 | -17.2% | – | 29.1 µM [falling, single point] |
| O=C(COc1ccccc1)Nc1cccc(S(=O)(=O)N2CCCC2)c1 | -5.53% | 6.51 µM [falling, single point] | – |
| CCOC(OCC)c1cn(Cc2ccc3c(c2)C(=O)c2ccccc2C3=O)nn1 | -12.3% | – | 18.4 µM [falling, single point] |
| O=C(C[n+]1cccc(CO)c1)Nc1nc2ccccc2s1 | -26.1% | – | 18.4 µM [falling, single point] |
| CCOc1ccc(-n2c(=S)sc3c(=O)n(-c4ccccc4)c(SCC(=O)O)nc32)cc1 | 62% | 5.8 µM [rising, full curve] | – |
| Cc1ccc(CN2CCN(/N=C/c3cc(Br)ccc3O)CC2)cc1 | -11.3% | 0.058 µM [falling, full curve, poor fit] | – |

| Compound | cell number change | AC50 [1] | AC50 [2] |
| --- | --- | --- | --- |
| O=C(NCc1cccc(Cl)c1)c1cnccn1 | -1.17% | – | 29.1 µM [falling, single point] |
| O=C(CSc1nc2c(sc3ccccc32)c(=O)n1CCO)NCC1CCCO1 (stereo not drawn) | 5.87% | – | – |
| O=C(Nc1ccccc1N1CCCC1)C1CCN(S(=O)(=O)c2ccccc2C(F)(F)F)CC1 | -39.1% | 13 µM [falling, partial curve, poor fit] | 29.1 µM [falling, single point] |
| COC(=O)c1ccccc1S(=O)(=O)N(CCCO)Cc1cc2c(C)ccc(C)c2[nH]c1=O | – | 0.58 µM [rising, full curve] | 0.58 µM [rising, full curve] |
| CC1CCC(NC(=O)CCN2C(=O)C3C4C=CC(C4)C3C2=O)CC1 (stereo not drawn) | 8.26% | – | – |
| CCC(C)(C)C1CCc2[nH]nc(C(=O)NCCNC(=O)OC(C)(C)C)c2C1 (stereo not drawn) | -0.132% | – | 0.231 µM [falling, full curve, poor fit] |
| O=C(O)C1CSC2c3ccccc3C(=O)N12 (stereo not drawn) | -134% | 29.1 µM [falling, single point] | 29.1 µM [falling, partial curve] |
| Cc1c(Cl)cccc1N1C(=O)C2ON(c3ccccc3)C(c3cccnc3)C2C1=O (stereo not drawn) | 60.6% | 29.1 µM [rising, single point] | 29.1 µM [rising, single point] |
| CC1CCc2c(sc3nc(C(C)(C)C)nc(N4CCN(C(=O)CCl)CC4)c23)C1 (stereo not drawn) | -52.3% | 20.6 µM [falling, partial curve] | 20.6 µM [falling, partial curve] |
| COc1ccc(CNCCC2(O)CC(C)N(C)CC2C)cc1OC (stereo not drawn) | 29.4% | – | – |
| COc1ccc(CCNS(=O)(=O)c2cc(C(=O)O)c(Cl)cc2Cl)cc1 | 23.2% | – | 0.146 µM [rising, partial curve, poor fit] |
| COc1ccc2sc(N(CCCN(C)C)C(=O)c3ccc(S(=O)(=O)N(C)C4CCCCC4)cc3)nc2c1 | 12.6% | – | 0.651 µM [falling, single point] |
| COc1cccc(NC(=O)CN(Cc2ccccc2)S(C)(=O)=O)c1 | 6.69% | – | – |
| CCCC(=Nc1ccc(N)cc1)C1=C(O)C(C(=O)OC)C(C)(C)CC1=O (stereo not drawn) | 22.4% | 1.64 µM [falling, partial curve] | 11.6 µM [falling, partial curve] |
| Cc1cc(C)nc(NS(=O)(=O)c2ccc(-n3cccc3)cc2)n1 | – | – | 1.3 µM [falling, partial curve] |
| Cc1c(NC(=O)Nc2ccc3c(c2)OCO3)c(=O)n(-c2ccccc2)n1C | 21% | – | 6.51 µM [falling, single point] |
| Cc1nnc(N/N=C/c2c(O)n(-c3cccc(C(F)(F)F)c3)c(=O)c3ccccc23)[nH]c1=O | 14.3% | 6.51 µM [falling, single point] | – |
| COc1ccccc1NC(=O)CCC(=O)OCc1ccc([N+](=O)[O-])cc1 | -14.4% | – | 0.731 µM [falling, full curve] |
| Cc1ccc(NC(=O)CN2C(=O)C3C4C=CC(C4)C3C2=O)cc1 (stereo not drawn) | 10.3% | 0.00517 µM [falling, full curve, poor fit] | – |

Random excerpt: 3 entries already listed.

| Compound | cell number change | AC50 [1] | AC50 [2] |
| --- | --- | --- | --- |
| O=C(Nc1ccccc1N1CCCC1)C1CCN(S(=O)(=O)c2ccccc2C(F)(F)F)CC1 | -39.1% | 13 µM [falling, partial curve, poor fit] | 29.1 µM [falling, single point] |
| Cc1c(NC(=O)Nc2ccc3c(c2)OCO3)c(=O)n(-c2ccccc2)n1C | 21% | – | 6.51 µM [falling, single point] |
| O=C(CSc1nc2c(sc3ccccc32)c(=O)n1CCO)NCC1CCCO1 (stereo not drawn) | 5.87% | – | – |
